Data reported in the supplement of paper PMC10849652.
This is one part of the list.

The chains behind the UniProt entries cited, without tags or fusion partners. Where a name states a change or a piece, a line headed by the entry shows the natural chain unless it says otherwise.
UniProt Q92997: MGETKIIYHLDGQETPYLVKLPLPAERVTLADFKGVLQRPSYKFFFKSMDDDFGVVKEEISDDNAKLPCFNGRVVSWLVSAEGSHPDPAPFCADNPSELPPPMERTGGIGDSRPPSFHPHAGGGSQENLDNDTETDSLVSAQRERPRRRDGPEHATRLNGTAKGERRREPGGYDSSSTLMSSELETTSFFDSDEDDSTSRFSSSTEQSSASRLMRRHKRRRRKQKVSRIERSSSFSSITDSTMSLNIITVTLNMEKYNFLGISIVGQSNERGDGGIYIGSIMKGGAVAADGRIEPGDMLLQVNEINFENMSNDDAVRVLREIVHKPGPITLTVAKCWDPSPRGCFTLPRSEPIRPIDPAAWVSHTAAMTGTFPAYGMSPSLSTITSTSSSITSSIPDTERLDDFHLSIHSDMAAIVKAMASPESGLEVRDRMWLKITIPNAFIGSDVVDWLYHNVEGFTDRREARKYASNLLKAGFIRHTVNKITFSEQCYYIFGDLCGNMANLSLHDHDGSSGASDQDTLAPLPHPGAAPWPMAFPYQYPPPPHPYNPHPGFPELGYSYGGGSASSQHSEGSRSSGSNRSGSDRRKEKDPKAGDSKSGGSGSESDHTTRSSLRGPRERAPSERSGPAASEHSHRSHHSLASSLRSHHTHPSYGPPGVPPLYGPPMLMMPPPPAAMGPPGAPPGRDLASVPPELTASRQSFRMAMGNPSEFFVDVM
UniProt Q14126: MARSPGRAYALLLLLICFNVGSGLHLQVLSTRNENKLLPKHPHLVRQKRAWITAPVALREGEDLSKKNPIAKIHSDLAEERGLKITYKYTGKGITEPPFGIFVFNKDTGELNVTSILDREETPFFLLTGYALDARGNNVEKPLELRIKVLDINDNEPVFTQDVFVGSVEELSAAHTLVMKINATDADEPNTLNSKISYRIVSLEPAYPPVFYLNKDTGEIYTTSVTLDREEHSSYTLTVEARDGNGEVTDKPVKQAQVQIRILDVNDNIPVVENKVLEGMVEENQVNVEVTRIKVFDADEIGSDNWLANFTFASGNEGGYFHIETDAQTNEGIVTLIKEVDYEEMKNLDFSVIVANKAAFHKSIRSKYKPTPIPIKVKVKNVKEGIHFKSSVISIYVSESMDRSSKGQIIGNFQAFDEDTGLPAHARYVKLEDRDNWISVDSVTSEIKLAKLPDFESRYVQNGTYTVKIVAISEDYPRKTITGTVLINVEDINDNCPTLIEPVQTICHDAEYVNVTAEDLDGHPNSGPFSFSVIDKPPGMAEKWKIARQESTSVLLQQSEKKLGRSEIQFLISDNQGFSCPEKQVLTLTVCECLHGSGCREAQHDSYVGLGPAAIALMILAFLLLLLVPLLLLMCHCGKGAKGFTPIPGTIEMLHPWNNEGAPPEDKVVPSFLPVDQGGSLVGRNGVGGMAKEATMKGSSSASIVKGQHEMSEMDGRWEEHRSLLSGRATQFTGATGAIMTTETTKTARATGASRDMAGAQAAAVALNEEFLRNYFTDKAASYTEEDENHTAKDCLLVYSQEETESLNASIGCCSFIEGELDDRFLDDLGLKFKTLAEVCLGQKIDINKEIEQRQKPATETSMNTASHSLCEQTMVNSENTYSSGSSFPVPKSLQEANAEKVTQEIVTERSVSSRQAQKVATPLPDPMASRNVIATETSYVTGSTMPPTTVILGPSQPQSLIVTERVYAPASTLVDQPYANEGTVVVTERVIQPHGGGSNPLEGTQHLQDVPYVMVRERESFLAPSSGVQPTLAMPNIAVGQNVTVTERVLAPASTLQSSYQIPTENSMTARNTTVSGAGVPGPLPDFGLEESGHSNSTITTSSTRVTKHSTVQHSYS
UniProt Q9Y6G9, whole entry, looked up: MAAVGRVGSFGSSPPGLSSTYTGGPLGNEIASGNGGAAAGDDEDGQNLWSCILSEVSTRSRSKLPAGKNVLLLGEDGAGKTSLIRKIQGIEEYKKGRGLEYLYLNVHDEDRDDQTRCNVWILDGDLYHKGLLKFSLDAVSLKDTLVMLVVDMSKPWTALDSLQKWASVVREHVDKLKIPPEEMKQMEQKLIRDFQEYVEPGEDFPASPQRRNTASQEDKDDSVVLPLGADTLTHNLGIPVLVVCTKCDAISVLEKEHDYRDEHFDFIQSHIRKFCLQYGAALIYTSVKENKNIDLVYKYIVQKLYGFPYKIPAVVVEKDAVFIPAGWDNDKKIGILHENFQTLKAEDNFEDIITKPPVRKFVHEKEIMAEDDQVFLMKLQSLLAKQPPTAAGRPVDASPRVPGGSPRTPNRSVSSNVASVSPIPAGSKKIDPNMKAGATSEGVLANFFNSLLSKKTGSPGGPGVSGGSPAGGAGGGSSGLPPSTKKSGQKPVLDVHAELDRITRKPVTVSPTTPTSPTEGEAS
UniProt O00716: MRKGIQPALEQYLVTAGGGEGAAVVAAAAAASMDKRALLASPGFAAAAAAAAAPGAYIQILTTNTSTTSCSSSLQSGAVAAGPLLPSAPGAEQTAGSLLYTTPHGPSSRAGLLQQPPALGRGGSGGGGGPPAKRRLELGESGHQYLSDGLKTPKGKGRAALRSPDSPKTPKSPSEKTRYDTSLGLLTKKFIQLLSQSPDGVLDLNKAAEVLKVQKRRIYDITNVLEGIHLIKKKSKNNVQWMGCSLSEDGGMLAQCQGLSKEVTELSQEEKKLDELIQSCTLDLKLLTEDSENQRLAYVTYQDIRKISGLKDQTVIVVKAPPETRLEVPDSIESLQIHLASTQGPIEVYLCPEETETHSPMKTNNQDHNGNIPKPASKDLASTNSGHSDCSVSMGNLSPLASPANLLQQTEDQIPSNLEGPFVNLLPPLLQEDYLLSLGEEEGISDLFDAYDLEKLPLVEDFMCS
UniProt Q9BVC3, whole entry, looked up: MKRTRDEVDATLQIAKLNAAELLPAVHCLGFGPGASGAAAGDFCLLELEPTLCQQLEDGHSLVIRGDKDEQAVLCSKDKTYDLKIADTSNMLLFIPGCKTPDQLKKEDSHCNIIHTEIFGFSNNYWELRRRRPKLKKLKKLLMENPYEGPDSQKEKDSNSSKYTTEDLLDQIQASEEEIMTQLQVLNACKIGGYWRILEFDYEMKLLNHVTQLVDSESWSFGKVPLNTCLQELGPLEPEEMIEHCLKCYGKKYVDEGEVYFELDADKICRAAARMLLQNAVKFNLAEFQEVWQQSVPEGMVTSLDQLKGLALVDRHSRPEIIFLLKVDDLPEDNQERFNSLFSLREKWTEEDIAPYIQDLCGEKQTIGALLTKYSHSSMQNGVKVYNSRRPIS
UniProt O75071: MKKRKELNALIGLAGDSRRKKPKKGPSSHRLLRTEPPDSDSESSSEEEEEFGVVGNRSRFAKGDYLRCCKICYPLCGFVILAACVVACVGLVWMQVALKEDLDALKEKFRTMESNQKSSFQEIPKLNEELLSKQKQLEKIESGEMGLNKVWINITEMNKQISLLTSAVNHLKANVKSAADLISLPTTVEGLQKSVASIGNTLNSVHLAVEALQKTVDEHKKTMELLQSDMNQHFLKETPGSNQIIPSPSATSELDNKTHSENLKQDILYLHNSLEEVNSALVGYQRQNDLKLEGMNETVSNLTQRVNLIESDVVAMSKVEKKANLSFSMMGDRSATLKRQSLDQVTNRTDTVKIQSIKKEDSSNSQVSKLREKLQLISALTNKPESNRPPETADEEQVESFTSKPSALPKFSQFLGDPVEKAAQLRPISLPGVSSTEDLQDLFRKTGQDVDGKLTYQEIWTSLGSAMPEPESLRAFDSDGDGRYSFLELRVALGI
UniProt Q15029: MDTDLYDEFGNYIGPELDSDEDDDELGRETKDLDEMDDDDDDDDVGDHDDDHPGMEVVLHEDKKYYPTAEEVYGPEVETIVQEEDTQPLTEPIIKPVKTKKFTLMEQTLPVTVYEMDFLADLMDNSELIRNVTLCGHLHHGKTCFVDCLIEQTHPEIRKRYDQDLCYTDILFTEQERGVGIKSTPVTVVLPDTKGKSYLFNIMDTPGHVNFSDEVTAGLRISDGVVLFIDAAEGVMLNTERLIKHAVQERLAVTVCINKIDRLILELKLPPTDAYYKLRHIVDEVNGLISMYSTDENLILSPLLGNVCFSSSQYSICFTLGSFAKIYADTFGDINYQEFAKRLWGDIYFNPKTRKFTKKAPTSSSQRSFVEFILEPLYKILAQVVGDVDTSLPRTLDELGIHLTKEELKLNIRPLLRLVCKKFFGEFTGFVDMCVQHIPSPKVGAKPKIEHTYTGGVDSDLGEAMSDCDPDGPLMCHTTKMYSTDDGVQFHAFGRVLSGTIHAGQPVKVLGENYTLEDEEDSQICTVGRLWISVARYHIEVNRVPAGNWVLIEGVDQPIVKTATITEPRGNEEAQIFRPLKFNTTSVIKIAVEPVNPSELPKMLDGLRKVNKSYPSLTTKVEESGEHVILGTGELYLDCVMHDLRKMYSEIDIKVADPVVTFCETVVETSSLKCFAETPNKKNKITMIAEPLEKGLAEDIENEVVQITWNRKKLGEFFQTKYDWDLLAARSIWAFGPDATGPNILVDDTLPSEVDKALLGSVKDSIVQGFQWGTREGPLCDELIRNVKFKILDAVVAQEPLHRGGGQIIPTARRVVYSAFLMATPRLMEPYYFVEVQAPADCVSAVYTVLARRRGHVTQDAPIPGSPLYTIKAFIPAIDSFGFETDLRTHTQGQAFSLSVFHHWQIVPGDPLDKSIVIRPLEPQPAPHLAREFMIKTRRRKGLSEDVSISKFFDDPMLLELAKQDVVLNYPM
UniProt Q02487, whole entry, looked up: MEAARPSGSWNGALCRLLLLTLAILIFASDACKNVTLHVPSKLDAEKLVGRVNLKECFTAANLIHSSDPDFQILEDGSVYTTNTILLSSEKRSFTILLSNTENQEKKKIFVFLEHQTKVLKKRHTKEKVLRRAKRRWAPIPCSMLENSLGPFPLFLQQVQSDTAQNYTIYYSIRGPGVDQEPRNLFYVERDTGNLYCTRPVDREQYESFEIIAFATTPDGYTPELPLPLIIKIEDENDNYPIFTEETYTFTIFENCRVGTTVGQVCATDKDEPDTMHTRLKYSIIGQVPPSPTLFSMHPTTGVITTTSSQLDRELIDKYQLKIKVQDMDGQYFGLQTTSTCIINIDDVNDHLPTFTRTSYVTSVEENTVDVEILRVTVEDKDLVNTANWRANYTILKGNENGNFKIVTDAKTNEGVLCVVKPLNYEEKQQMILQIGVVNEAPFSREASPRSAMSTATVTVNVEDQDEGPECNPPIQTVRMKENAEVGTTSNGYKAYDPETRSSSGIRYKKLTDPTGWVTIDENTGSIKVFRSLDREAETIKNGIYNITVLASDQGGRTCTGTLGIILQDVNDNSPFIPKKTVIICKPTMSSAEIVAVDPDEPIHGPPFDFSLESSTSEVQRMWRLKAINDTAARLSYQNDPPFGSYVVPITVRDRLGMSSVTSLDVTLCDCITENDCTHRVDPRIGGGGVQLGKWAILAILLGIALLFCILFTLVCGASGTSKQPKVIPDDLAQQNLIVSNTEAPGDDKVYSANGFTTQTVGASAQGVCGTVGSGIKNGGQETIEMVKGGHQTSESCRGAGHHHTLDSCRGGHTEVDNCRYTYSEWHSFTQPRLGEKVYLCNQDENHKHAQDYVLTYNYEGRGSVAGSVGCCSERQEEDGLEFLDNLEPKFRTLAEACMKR
UniProt Q9BZQ6: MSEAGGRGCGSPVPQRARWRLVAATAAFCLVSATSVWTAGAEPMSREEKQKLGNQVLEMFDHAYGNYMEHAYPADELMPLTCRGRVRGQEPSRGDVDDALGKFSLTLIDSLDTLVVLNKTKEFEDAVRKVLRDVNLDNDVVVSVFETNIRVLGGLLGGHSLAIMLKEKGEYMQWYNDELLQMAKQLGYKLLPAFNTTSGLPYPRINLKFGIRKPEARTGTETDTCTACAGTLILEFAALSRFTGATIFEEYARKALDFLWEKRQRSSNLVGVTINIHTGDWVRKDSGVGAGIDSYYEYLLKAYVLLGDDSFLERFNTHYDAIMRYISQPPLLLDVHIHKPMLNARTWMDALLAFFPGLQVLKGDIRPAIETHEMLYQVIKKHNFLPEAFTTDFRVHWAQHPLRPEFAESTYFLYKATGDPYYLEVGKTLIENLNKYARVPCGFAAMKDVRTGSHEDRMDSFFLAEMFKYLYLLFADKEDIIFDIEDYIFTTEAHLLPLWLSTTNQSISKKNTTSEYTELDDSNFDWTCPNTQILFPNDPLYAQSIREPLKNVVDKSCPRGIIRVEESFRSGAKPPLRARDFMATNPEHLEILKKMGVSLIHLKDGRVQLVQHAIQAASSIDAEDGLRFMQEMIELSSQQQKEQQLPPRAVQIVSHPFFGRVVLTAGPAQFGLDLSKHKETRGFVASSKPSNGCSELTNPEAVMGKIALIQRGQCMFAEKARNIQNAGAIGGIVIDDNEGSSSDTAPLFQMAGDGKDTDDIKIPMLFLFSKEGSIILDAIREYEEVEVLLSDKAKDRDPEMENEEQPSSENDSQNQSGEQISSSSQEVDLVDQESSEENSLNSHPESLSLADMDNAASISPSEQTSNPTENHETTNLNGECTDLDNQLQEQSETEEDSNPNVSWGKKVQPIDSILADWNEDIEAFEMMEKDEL

compound: C1=CC2=NC=CN=C2C=C1/C=C/3\C(=O)NC(=O)S3; assay: log2 fold change, soluble protein after heating vs DMSO (PISA); higher = thermal stabilisation; K562 lysate, 10 uM; active = over 0.2 and 3.5 SD of the protein, either way, in both replicates (recomputed)
Method in brief: (§1)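 To prepare the extract, K562 pellets were dounce-homogenised in PBS pH 7.4 with 1 mM MgCl2, giving crude material at 1 mg/mL protein. This was treated with 10 μM compound for 30 min, then heated in aliquots for 3 min over 48°C-58°C before pooling and addition of NP-40 to 0.5% at 4°C. Centrifugation at 21,000xg for 90 min left soluble protein in the supernatant, which TMTpro 16plex LC-MS/MS quantified with equalised channel sums. Results are log-two fold changes in thermal stability compared with solvent controls, from duplicates.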

log2 fold change, inactive:
DVL3 (UniProt Q92997) -0.051
EEF1AKNMT (UniProt Q8N6R0) 0.005
DUS4L (UniProt O95620) -0.034
DPH6 (UniProt Q7L8W6) -0.045
EFL1 (UniProt Q7Z2Z2) 0.008
EARS2 (UniProt Q5JPH6) 0.028
ECT2 (UniProt Q9H8V3) 0.044
DSG2 (UniProt Q14126) -0.004
DRAP1 isoform 2 (UniProt Q14919) -0.002
DYNC1LI1 (UniProt Q9Y6G9) 0.009
EHD2 (UniProt Q9NZN4) 0.012
E2F3 (UniProt O00716) -0.013
DR1 (UniProt Q01658) 0.016
DYNC1H1 (UniProt Q14204) -0.019
DUS3L (UniProt Q96G46) 0.013
DPH2 (UniProt Q9BQC3) 0.005
DYNC1LI2 (UniProt O43237) 0.009
EEA1 (UniProt Q15075) -0.029
DSCC1 (UniProt Q9BVC3) 0.127
ECI1 (UniProt P42126) -0.015
E2F4 (UniProt Q16254) 0.029
DYNLL1 (UniProt P63167) 0.017
DYNC1I2 isoform 2 (UniProt Q13409) -0.127
DPY19L4 (UniProt Q7Z388) 0.013
EFCAB14 (UniProt O75071) -0.019
DYRK1A (UniProt Q13627) 0.175
DPF2 (UniProt Q92785) -0.018
DSTN (UniProt P60981) 0.013
ECHS1 (UniProt P30084) 0.008
EFTUD2 (UniProt Q15029) -0.01
EDF1 (UniProt O60869) -0.002
DTYMK (UniProt P23919) 0.024
EEFSEC (UniProt P57772) 0.006
DSC2 (UniProt Q02487) 0.167
DXO (UniProt O77932) 0
DUSP23 (UniProt Q9BVJ7) 0.002
EGLN1 (UniProt Q9GZT9) -0.027
EEF1B2 (UniProt P24534) 0
EAPP (UniProt Q56P03) 0.073
EDEM3 (UniProt Q9BZQ6) -0.01

compound: C1=CC=C(C=C1)C2=NC(=C(N2)C3=CC=NC=C3)C4=CC(=C(C=C4)Cl)O; assay: as above
Method in brief: as §1

log2 fold change, inactive:
DVL3 (UniProt Q92997) -0.09
EEF1AKNMT (UniProt Q8N6R0) 0
DUS4L (UniProt O95620) 0.055
DPH6 (UniProt Q7L8W6) -0.009
EFL1 (UniProt Q7Z2Z2) 0.001
EARS2 (UniProt Q5JPH6) 0.005
ECT2 (UniProt Q9H8V3) 0.015
DSG2 (UniProt Q14126) -0.021
DRAP1 isoform 2 (UniProt Q14919) -0.015
DYNC1LI1 (UniProt Q9Y6G9) 0.002
EHD2 (UniProt Q9NZN4) -0.002
E2F3 (UniProt O00716) 0.039
DR1 (UniProt Q01658) 0.006
DYNC1H1 (UniProt Q14204) -0.004
DUS3L (UniProt Q96G46) 0.032
DPH2 (UniProt Q9BQC3) -0.033
DYNC1LI2 (UniProt O43237) -0.018
EEA1 (UniProt Q15075) 0.005
DSCC1 (UniProt Q9BVC3) 0.054
ECI1 (UniProt P42126) -0.04
E2F4 (UniProt Q16254) 0.011
DYNLL1 (UniProt P63167) -0.023
DYNC1I2 isoform 2 (UniProt Q13409) -0.002
DPY19L4 (UniProt Q7Z388) 0.179
EFCAB14 (UniProt O75071) -0.042
DYRK1A (UniProt Q13627) 0.016
DPF2 (UniProt Q92785) 0.003
DSTN (UniProt P60981) 0
ECHS1 (UniProt P30084) 0.007
EFTUD2 (UniProt Q15029) 0.007
EDF1 (UniProt O60869) 0.012
DTYMK (UniProt P23919) -0.016
EEFSEC (UniProt P57772) -0.044
DSC2 (UniProt Q02487) 0.043
DXO (UniProt O77932) 0.013
DUSP23 (UniProt Q9BVJ7) 0.033
EGLN1 (UniProt Q9GZT9) 0.006
EEF1B2 (UniProt P24534) 0.013
EAPP (UniProt Q56P03) 0.011
EDEM3 (UniProt Q9BZQ6) 0.03
